# Results: PubChem BioAssay AID2685 (National Center for Advancing Translational Sciences (NCATS), 2010)
# The other results are listed elsewhere or left out. Shown are side measurements of this screen, not its main read-out; they come without a call. Most of these compounds were active or inconclusive in the main read-out, so they are no random draw. Potencies come from curve fits of mixed quality, noted in brackets.
# Experiment: qHTS Assay for Lipid Storage Modulators in Drosophila S3 Cells;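 on cell number change: cells counted by Cell Tracker Red CMTPX staining in the red channel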
# Conditions: BODIPY lipid droplet fluorescence, 18-24 h; for cell number change: measured here: cell count max response, cells fed with added oleic acid
# Procedure, shortened: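 Laser-scanning cytometry quantifies lipid droplet accumulation (500–530 nm total intensity; droplet/cell object ratio) in oleic acid-fed (400 uM added) Drosophila S3 cells treated with a concentration series. 20 uM Triacsin C defined 100% inhibition.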
# [1] = measured here: lipid fluorescence (Fed channel) AC50, cells fed with added oleic acid
# [2] = measured here: cell number channel AC50, cells fed with added oleic acid
Structure (SMILES),cell number change [%],AC50 [1],AC50 [2]
COC(=O)c1[nH]c2ccccc2c1NC(=O)CN1CCN(c2cccc(OC)c2)C(C)C1 (centres undefined),-18.7,"580 nM [rising, full curve]",–
CN(C)C(=O)c1nc2ccc(Cl)cn2c1CNCc1cccc(OC(F)(F)F)c1,18.8,"29100 nM [rising, partial curve, poor fit]","2590 nM [rising, single point]"
Cc1c(CC(=O)NCCCCCC(=O)O)c(=O)oc2cc3c(cc12)CCC(C)(C)O3,13.5,"580 nM [rising, single point]",–
O=C(Nc1ccc(NC(=O)c2cc([N+](=O)[O-])ccc2N2CCOCC2)cc1)c1cccs1,20.8,"1300 nM [rising, full curve]","820 nM [rising, full curve]"
O=C(CCNC(=O)C1CCN(S(=O)(=O)c2ccc(F)cc2)CC1)NCc1cccnc1,18.5,"130 nM [rising, full curve, poor fit]",–
CN(C)C(CNC(=O)/C=C/c1cccc(Cl)c1)c1ccccc1 (centres undefined),8.7,"29100 nM [falling, single point]",–
COC(=O)c1cc(OC(=O)CCc2ccc(OC)c(OC)c2)cc(C(=O)OC)c1,31.9,–,"5.17 nM [rising, full curve, poor fit]"
Cc1ccc(S(=O)(=O)N2CCCC(C(=O)NCc3ccc4c(c3)OCO4)C2)cc1 (centres undefined),5.13,"461 nM [falling, partial curve]","1030 nM [rising, partial curve, poor fit]"
O=C(Nc1ccccc1N1CCN(C(=O)c2ccccc2)CC1)c1ccc(Br)o1,-15.7,"3660 nM [falling, full curve, poor fit]",–
CCCCCN1C=CC(=C2C(=O)c3ccccc3C2=O)C=C1,8.88,"6510 nM [falling, single point]",–
Cc1cccc(S(=O)(=O)NNC(=O)c2cc(-c3ccc(F)cc3)nc3ccccc23)c1,13.5,"6510 nM [falling, single point]","731 nM [falling, full curve]"
COc1ccc(NC(=O)c2ccc3[nH]c(C)c(C)c3c2)c(OC)c1,-2.84,–,–
CC1(C)CC(=O)C2=C(C1)NCN(Cc1ccccc1)C2,1.35,–,–
N#Cc1ncc(-c2ccc3c(c2)OCCOCCOCCOCCO3)nc1C#N,-14.3,"291 nM [falling, partial curve, poor fit]",–
O=C(NCCC1CCCCN1S(=O)(=O)c1cccs1)C(=O)Nc1ccccc1F (centres undefined),-4.58,"29.1 nM [rising, full curve, poor fit]",–
COC(=O)c1cnn(-c2cc(Oc3cccc(C)c3)ncn2)c1N,–,"5170 nM [rising, partial curve]","2910 nM [rising, single point]"
Cn1c(=O)c2c(nc(OCC3COC(C)(C)O3)n2Cc2ccccc2F)n(C)c1=O (centres undefined),-17.4,"32.6 nM [falling, partial curve, poor fit]",–
O=C(Cc1ccccc1)N/N=C/c1ccccc1Cl,–,"6510 nM [rising, single point]",–

Structure (SMILES),cell number change [%],AC50 [1],AC50 [2]
Fc1ccc(NC(=S)NCCc2ccc(Cl)cc2)cc1,–,"29100 nM [rising, single point]",–
COc1ccc(S(=O)(=O)NCCOc2ccc(Cl)cc2)cc1,-1.3,–,–
COC(=O)C1=C(C)N(Cc2ccccc2)C(=NCc2cccc(Cl)c2)N[C@H]1c1cccc(F)c1,–,"18400 nM [falling, single point]",–
COc1cccc(N2C(=NC(=O)CCC3CCCC3)SC3CS(=O)(=O)CC32)c1 (centres undefined),–,"16400 nM [falling, single point]",–
CCn1c(-c2cccc(Br)c2)n[nH]c1=S,–,"116 nM [rising, full curve, poor fit]","366 nM [rising, full curve, poor fit]"
CC(C(=O)C12CC3CC(CC(C3)C1)C2)N1CCOCC1 (centres undefined),-4.11,–,–
Cc1noc(N)c1C(=O)Nc1ccc(F)c(Cl)c1,-23.2,"16400 nM [falling, single point]",–
COc1ccccc1N1CCN(C(=O)C(=O)c2cn(CC(=O)N3CCOCC3)c3ccccc23)CC1,12.4,"3660 nM [rising, full curve]",–
O=C(c1cccc(C(F)(F)F)c1)N(c1ccccn1)C1CCCCC1,26.7,–,"4.61 nM [rising, full curve, poor fit]"
CC1(c2ccc3ccccc3c2)NC(=O)N(CC(=O)N2CCN(S(=O)(=O)c3ccccc3F)CC2)C1=O (centres undefined),–,"4.61 nM [rising, full curve, poor fit]",–
Cc1cc(/C=C(/C#N)C(=O)O)c(C)n1-c1cccc2ccccc12,-17.6,"3660 nM [falling, full curve, poor fit]",–
COc1ccc(CN2CCC(=O)N([C@H](CO)CC(C)C)CC2)cc1OC,14.2,"29100 nM [rising, single point]",–
Cc1ccc(-c2nc(CC(=O)Nc3cccc(S(=O)(=O)NC4=NCCC4)c3)cs2)cc1,-15.6,"6510 nM [falling, single point]",–
COc1cc2nc(NC(=O)c3ccc(Cl)cc3)[nH]c(=O)c2cc1OC,-11.1,"461 nM [rising, single point]","5.8 nM [falling, full curve, poor fit]"
CSCCC(NC(=O)c1ccccc1Cl)C(=O)N1CCCCCCC1 (centres undefined),2.43,–,–
O=C(NC1CCCCC1)C(c1ccc(F)cc1)N(Cc1ccco1)C(=O)c1ccccn1 (centres undefined),-45.4,"731 nM [falling, full curve]","5170 nM [falling, full curve]"
Cc1ccc(OCCC(=O)OCC(=O)NC(=O)NC2CCCCC2)cc1,-56.1,–,"13000 nM [falling, partial curve]"
Cc1cc(NC(=O)COC(=O)CCNS(=O)(=O)c2c(Cl)cccc2Cl)no1,44,"1640 nM [rising, partial curve]","820 nM [rising, full curve, poor fit]"

# Of the compounds above, two have a thiophene ring, fused or not.
Structure (SMILES),cell number change [%],AC50 [1],AC50 [2]
O=C(Nc1ccc(NC(=O)c2cc([N+](=O)[O-])ccc2N2CCOCC2)cc1)c1cccs1,20.8,"1300 nM [rising, full curve]","820 nM [rising, full curve]"
O=C(NCCC1CCCCN1S(=O)(=O)c1cccs1)C(=O)Nc1ccccc1F (centres undefined),-4.58,"29.1 nM [rising, full curve, poor fit]",–
